According to article PMC8211793:
Results are given in words; binding and its absence hold for the method and conditions named. Binding seen in cells or lysates may run through a third protein. Binding calls can cover weak binding; strength is not graded here. Tags and fused reporters may be left off the sequences shown.

Amino acid sequences for entries named in this document (tags omitted). A change or cut given only in a name is not applied to a line headed by its entry.
UniProt P30048: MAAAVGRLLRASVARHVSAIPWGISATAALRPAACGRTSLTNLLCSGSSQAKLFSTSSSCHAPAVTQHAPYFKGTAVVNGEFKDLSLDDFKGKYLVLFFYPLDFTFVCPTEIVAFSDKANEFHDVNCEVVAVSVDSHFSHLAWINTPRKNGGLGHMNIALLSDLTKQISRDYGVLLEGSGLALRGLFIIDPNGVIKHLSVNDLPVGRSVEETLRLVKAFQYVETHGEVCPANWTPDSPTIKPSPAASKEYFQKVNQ

Target: T1, Flag-PHB, full-length (human) (UniProt P35232)
T1 sequence: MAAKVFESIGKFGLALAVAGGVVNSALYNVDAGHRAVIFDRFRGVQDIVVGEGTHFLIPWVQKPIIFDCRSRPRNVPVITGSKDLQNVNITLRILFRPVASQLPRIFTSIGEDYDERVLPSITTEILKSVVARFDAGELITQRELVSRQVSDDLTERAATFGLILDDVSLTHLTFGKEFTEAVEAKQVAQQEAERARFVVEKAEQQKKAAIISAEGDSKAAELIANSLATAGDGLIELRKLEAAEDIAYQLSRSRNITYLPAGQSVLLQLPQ
Assay: co-IP; HEK293 cells co-transfected with HA-PRDX3 and full-length or truncated Flag-PHB for 48 h; NP-40 lysis buffer

binding: binds
Substance: HA-PRDX3 (from UniProt P30048)
